The text below walks through data of the supplement of paper PMC5355238.

Counter-ions that a name gives are not always drawn. Some of the results follow. Most values lie at the level of the controls, where differences are scatter.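 Reh is a human leukemia cell line; the read-out is the median γH2AX antibody signal in S-phase cells by flow cytometry, with the score counting standard deviations from the median difference of each paired set of plates. Scores above 2.5 were called candidate hits, while scores below -2 mark compounds that lowered the MK1775-induced damage.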

The test relates to Reh. In words: Z' of S-phase gammaH2AX difference (drug + MK1775 minus drug alone) (Z-score); higher = stronger synergistic S-phase DNA damage with MK1775. The following applies: MK1775 concentration 400 nM; first compound 10 µM; 4 h.
Turning to `CC1CN(S(=O)(=O)c2cccc3cnccc23)CCN1` (configuration not stated) + C=CCn1c(=O)c2cnc(Nc3ccc(N4CCN(C)CC4)cc3)nc2n1-c1cccc(C(C)(C)O)n1 [MK1775], the “Z' of S-phase gammaH2AX difference (Z-score)” value is inactive: -0.0899.
With `CCOC(=O)C1=C[C@]2(CC)CCCN3CCc4c(n1c1ccccc41)[C@@H]32` [Vinpocetine] + C=CCn1c(=O)c2cnc(Nc3ccc(N4CCN(C)CC4)cc3)nc2n1-c1cccc(C(C)(C)O)n1 [MK1775], the “Z' of S-phase gammaH2AX difference (Z-score)” value is inactive: -0.602.
For the molecule `CCOC(=O)C1=C[C@]2(CC)CCCN3CCc4c(n1c1ccccc41)[C@@H]32` [Vinpocetine (Cavinton)] + C=CCn1c(=O)c2cnc(Nc3ccc(N4CCN(C)CC4)cc3)nc2n1-c1cccc(C(C)(C)O)n1 [MK1775], the “Z' of S-phase gammaH2AX difference (Z-score)” value was inactive: 0.316.
`COc1cc(Nc2ncc(F)c(Nc3ccc4c(n3)N(COP(=O)(O)O)C(=O)C(C)(C)O4)n2)cc(OC)c1OC` + C=CCn1c(=O)c2cnc(Nc3ccc(N4CCN(C)CC4)cc3)nc2n1-c1cccc(C(C)(C)O)n1 [MK1775]: the “Z' of S-phase gammaH2AX difference (Z-score)” value is inactive: -0.288.
The same measure for `Cc1nnc(C(C)C)n1C1C[C@H]2CC[C@@H](C1)N2CC[C@H](NC(=O)C1CCC(F)(F)CC1)c1ccccc1` (stereo in doubt) [Maraviroc] + C=CCn1c(=O)c2cnc(Nc3ccc(N4CCN(C)CC4)cc3)nc2n1-c1cccc(C(C)(C)O)n1 [MK1775]: inactive: 0.211.
With `Cn1cc(-c2ccc3nnc(C(F)(F)c4ccc5ncccc5c4)n3n2)cn1` + C=CCn1c(=O)c2cnc(Nc3ccc(N4CCN(C)CC4)cc3)nc2n1-c1cccc(C(C)(C)O)n1 [MK1775] the figure was inactive: -0.0821; with `CN1[C@@H](CC(=O)c2ccccc2)CCC[C@H]1C[C@H](O)c1ccccc1` [alpha-Lobeline hydrochloride] + C=CCn1c(=O)c2cnc(Nc3ccc(N4CCN(C)CC4)cc3)nc2n1-c1cccc(C(C)(C)O)n1 [MK1775], inactive: 0.0462; with `CCC(CC)CC1(C(=O)Nc2ccccc2SC(=O)C(C)C)CCCCC1` [Dalcetrapib??JTT-705??] + C=CCn1c(=O)c2cnc(Nc3ccc(N4CCN(C)CC4)cc3)nc2n1-c1cccc(C(C)(C)O)n1 [MK1775], inactive: 0.183.
As to `CSc1nc(N)c2ncn([C@@H]3O[C@H](COP(=O)(O)OP(=O)(O)OP(=O)(O)O)[C@H](O)C3O)c2n1` (some centres not stated) [2-Methylthioadenosine triphosphate tetrasodium] + C=CCn1c(=O)c2cnc(Nc3ccc(N4CCN(C)CC4)cc3)nc2n1-c1cccc(C(C)(C)O)n1 [MK1775], the “Z' of S-phase gammaH2AX difference (Z-score)” value is inactive: -0.194.
The same measure for `CC(=O)C(C)=O` [2,3-Butanedione] + C=CCn1c(=O)c2cnc(Nc3ccc(N4CCN(C)CC4)cc3)nc2n1-c1cccc(C(C)(C)O)n1 [MK1775]: inactive: 0.435; for `C#CCN1C(C)=C(C(=O)OC)C(c2cccc([N+](=O)[O-])c2)C(C(=O)OCC)=C1C` (configuration not stated) + C=CCn1c(=O)c2cnc(Nc3ccc(N4CCN(C)CC4)cc3)nc2n1-c1cccc(C(C)(C)O)n1 [MK1775]: inactive: -0.184; for `N=C(N)NCCC[C@H](N)C(=O)O` [L-Arginine] + C=CCn1c(=O)c2cnc(Nc3ccc(N4CCN(C)CC4)cc3)nc2n1-c1cccc(C(C)(C)O)n1 [MK1775]: inactive: -0.281.
In the case of `CNCCC(Oc1ccc(C(F)(F)F)cc1)c1ccccc1` (configuration not stated) [Fluoxetine hydrochloride] + C=CCn1c(=O)c2cnc(Nc3ccc(N4CCN(C)CC4)cc3)nc2n1-c1cccc(C(C)(C)O)n1 [MK1775], the “Z' of S-phase gammaH2AX difference (Z-score)” value is inactive: -0.785.
With `Cc1nc2n(c(=O)c1CCN1CCC(c3noc4cc(F)ccc34)CC1)CCCC2` [Risperidone] + C=CCn1c(=O)c2cnc(Nc3ccc(N4CCN(C)CC4)cc3)nc2n1-c1cccc(C(C)(C)O)n1 [MK1775] the figure was inactive: -0.0242; with `C[N+](C)([O-])CCNc1ccc(NCC[N+](C)(C)[O-])c2c1C(=O)c1c(O)ccc(O)c1C2=O` [Banoxantrone dihydrochloride] + C=CCn1c(=O)c2cnc(Nc3ccc(N4CCN(C)CC4)cc3)nc2n1-c1cccc(C(C)(C)O)n1 [MK1775], inactive: 0.194.
As to `CCCCNC(=O)NS(=O)(=O)c1ccc(C)cc1` [Tolbutamide] + C=CCn1c(=O)c2cnc(Nc3ccc(N4CCN(C)CC4)cc3)nc2n1-c1cccc(C(C)(C)O)n1 [MK1775], the “Z' of S-phase gammaH2AX difference (Z-score)” value was inactive: 0.487.
Take `CCCS(=O)(=O)Nc1ccc(F)c(C(=O)c2c[nH]c3ncc(-c4ccc(Cl)cc4)cc23)c1F` [Vemurafenib (PLX4032)] + C=CCn1c(=O)c2cnc(Nc3ccc(N4CCN(C)CC4)cc3)nc2n1-c1cccc(C(C)(C)O)n1 [MK1775]: the “Z' of S-phase gammaH2AX difference (Z-score)” value is inactive: -0.0628.
For the molecule `CCCCCCCCCCC/C=C\C(C)(C)/C=C\CCCC(=O)O` [7,7-Dimethyl-(5Z,8Z)-eicosadienoic acid] + C=CCn1c(=O)c2cnc(Nc3ccc(N4CCN(C)CC4)cc3)nc2n1-c1cccc(C(C)(C)O)n1 [MK1775], the “Z' of S-phase gammaH2AX difference (Z-score)” value is inactive: 0.338.
As to `CC(C)NCC(O)COc1cccc2ccccc12` (configuration not stated) [(?)-Propranolol hydrochloride] + C=CCn1c(=O)c2cnc(Nc3ccc(N4CCN(C)CC4)cc3)nc2n1-c1cccc(C(C)(C)O)n1 [MK1775], the “Z' of S-phase gammaH2AX difference (Z-score)” value was inactive: 0.247.
The same measure for `CC(C)C[C@H](NC(=O)[C@H]1O[C@@H]1C(=O)O)C(=O)NCCCCN=C(N)N` + C=CCn1c(=O)c2cnc(Nc3ccc(N4CCN(C)CC4)cc3)nc2n1-c1cccc(C(C)(C)O)n1 [MK1775]: inactive: -0.619.
For `CN(C)Cc1ccc(-c2nc3cccc4c3n2CCNC4=O)cc1` + C=CCn1c(=O)c2cnc(Nc3ccc(N4CCN(C)CC4)cc3)nc2n1-c1cccc(C(C)(C)O)n1 [MK1775], the “Z' of S-phase gammaH2AX difference (Z-score)” value is inactive: 0.0821.
As to `Cc1[nH]c(/C=C2\C(=O)Nc3ccc(S(=O)(=O)N(C)c4cccc(Cl)c4)cc32)c(C)c1C(=O)N1CCN(C)CC1` + C=CCn1c(=O)c2cnc(Nc3ccc(N4CCN(C)CC4)cc3)nc2n1-c1cccc(C(C)(C)O)n1 [MK1775], the “Z' of S-phase gammaH2AX difference (Z-score)” value was inactive: -0.427.
